Reference: PubChem BioAssay AID686937 (Drosophila RNAi Screening Center, 2013)

Aim: 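Genes in the fly needed for secretion of protein constitutively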 (primary screen)
System: Drosophila S2 cells expressing secreted horseradish peroxidase
Reagents: long dsRNA against Drosophila genes
Duration: about 5.5 days (5 days dsRNA, then 12 h reporter induction)
Challenge: reporter expression induced after 5 days of dsRNA, read 12 h later; inducer not stated
Read-out: 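Chemiluminescent measurement of peroxidase in the medium 12 h after reporter induction, following 5 days of dsRNA, given as a z-score per plate; higher means more secretion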
Scale: z-score: higher = more reporter secreted into medium
In all, the deposit lists about 23,000 reagents; this is a random part of those that have a named target and a result. 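Reduced-secretion tags in replicate 1 do not always agree with the z-scores; no criterion for assigning the tags was given.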 The numbers tell different reagents against one gene apart. A plus sign joins genes that one reagent is predicted to hit. Further read-outs or replicates are left out here. The record does not give: the amount of reagent.

Target gene	dsRNA no.	z-score, replicate 1	z-score, replicate 2	z-score, replicate 3
CG13326	1	0.32	0.32	
Spn85F	1	-1.05	-0.63	
nsr	1	0.4	0.48	
nsr	2	0.41	-1.35	
CG3598	1	-0.01	-0.14	
Ntmt	1	0.19	0.38	
Afg3l2	1	-0.16	-0.17	
CG30020	1	0.8	0.38	
CG30020	2	-0.67	-0.68	
Erasp	1	0.23	0.47	
atl	1	0.15	0.24	
RabX4	1	0.36	0.21	
Pvr	1	-1.63	-0.87	
Obp56e	1	0.43	0.27	
TTLL4A	1	0.22	0.2	
Tsp3A	1	0.18	0.34	
CG1092	1	0.12	0.14	
CR42532	1	0.47	0.42	
RpS10b	1	-0.12	-0.28	0.48
CG12766	1	0.12	0.32	
etaTry	1	0.21	0.13	
Tsf2	1	0.1	0.42	
Lhr	1	0.48	0.38	
UGP + PGRP-LF	1	0.6	0.36	
not	1	0.34	0.32	
yip2	1	0.06	0.23	
CG9467	1	0.1	0.25	
CG18814	1	0.14	0.27	
l(3)neo38	1	0.2	0.47	0.83
l(3)neo38	2	0.21	0.61	
tant	1	0.1	0.37	
RhoGAP71E	1	0.48	0.49	
RhoGAP71E	2	0.25	0.56	
RhoGAP71E	3	0.66	0.38	
Rtf1	1	-2.34	-2.32	
Isha	1	0.23	-0.05	
CG46441	1	0.29	0.43	
Tapdelta	1	0.45	0.32	
CG15498	1	0.51	0.53	
CG42857	1	0.53	0.5	
CG4653	1	-2.08	0.42	0.34
CG4653	2	0.09	0.07	
Prat2	1	0.11	0.28	
Syx13	1	0.31	0.4	
CG32192	1	-0.67	-0.41	
melt	1	0.5	0.45	
nwk	1	-0.23	0.48	
nwk	2	0.41	0.09	
GCC88	1	0.4	0.7	
Rab4 + CG42239	1	-0.35	0.36	
mthl1	1	0.22	-0.03	
bgm	1	-1.66	-1.02	
CG9300	1	0.13	-0.53	
Nepl13	1	0.23	0.24	
CG32196	1	0.7	0.38	
lncRNA:CR43434	1	0.18	0.31	
CG7408	1	0.19	0.25	
Schip1	1	0.26	0.6	
Sec22 + CG13358	1	-1.09	-1.35	
CG32448	1	-0.03	0.19	
Uvrag	1	0.23	0.16	
CG14926	1	0.65	0.27	
Atg1	1	0.18	0.05	
Atg1	2	0.21	0.12	
BomS4	1	-0.55	0.12	
CG15803	1	0.19	0.47	
Jon44E	1	0.32	0.36	
Hel25E	1	-5.15	-5.84	
Tbce	1	0.34	0.43	
ND5 (retired record)	1	0.25	0.43	
GstE7	1	0.1	0.34	
CG14118	1	0.24	0.12	
Oatp30B	1	0.03	0.19	
CG15696	1	0.14	0.41	
Cyp4e1	1	0.26	0.24	
pxb	1	-0.83	-0.27	
pxb	2	0.05	0.26	-0.22
pxb	3	0.01	0.67	
pxb	4	0.06	0.05	
Magi	1	0.28	0.3	
Magi	2	0.36	0.1	
Octbeta3R	1	0.12	0.23	
Octbeta3R	2	0.38	0.69	
Octbeta3R	3	0.19	-0.47	
Octbeta3R	4	4.34	1.64	
Octbeta3R	5	0.63	0.3	

Records above whose target name starts with N or n (8):
Target gene	dsRNA no.	z-score, replicate 1	z-score, replicate 2	z-score, replicate 3
nsr	1	0.4	0.48	
nsr	2	0.41	-1.35	
Ntmt	1	0.19	0.38	
not	1	0.34	0.32	
nwk	1	-0.23	0.48	
nwk	2	0.41	0.09	
Nepl13	1	0.23	0.24	
ND5 (retired record)	1	0.25	0.43	
